Reference: publication PMC6125409
Results are given in words; binding and its absence hold for the method and conditions named. Where a sequence is shown, tags or fusion partners need not be part of it.

How the values were obtained:
[1] = biological target: gEpEX fused to IgG1 heavy chain hinge and Fc region (UniProt P16422); assay: bead aggregation assay; Fc fusions held on Protein A-coupled 1 µm magnetic beads; 20 mM HEPES pH 8.0, 100 mM NaCl, 2 mM CaCl2, 0.1% Tween-20 (Triton X-100 for gEpFL-Fc; 2 mM EDTA instead of CaCl2 for E-CadEX-Fc(EDTA)); room temperature; interaction between Fc-locked dimers on separate beads; both purified
[2] = biological target: gEpEX fused to IgG1 heavy chain hinge and Fc region (UniProt P16422); assay: bead aggregation assay; gEpEX-Fc on Protein A beads; same buffer without CaCl2 or EDTA, pH adjusted to various values (Tris-HCl for pH 8.5); room temperature; interaction between Fc-locked dimers on separate beads; both purified

binding [1]: no binding
binding [2]: no binding
B1: gEpEX fused to IgG1 heavy chain hinge and Fc region (Fc fusion, UniProt P16422 24-265)
chain: QEECVCENYKLAVNCFVNNNRQCQCTSVGAQNTVICSKLAAKCLVMKAEMNGSKLGRRAKPEGALQNNDGLYDPDCDESGLFKAKQCNGTSMCWCVNTAGVRRTDKDTEITCSERVRTYWIIIELKHKAREKPYDSKSLRTALQKEITTRYQLDPKFITSILYENNVITIDLVQNSSQKTQNDVDIADVAYYFEKDVKGESLFHSKKMDLTVNGEQLDLDPGQTLIYYVDEKAPEFSMQGLK
modifications: glycosylated (non-native, as produced in insect cells)
